Values from PubChem BioAssay AID1259307 (Sanger Institute, 2017).
The deposit covers 794 reagents; below is an unselected part. Over the whole deposit, 15 (1.9%) got an active call. 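Calls reflect lethality without any drug; synergy scores did not enter the calls.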 Viability is capped at 1. Not stated in the record: the amount of reagent, the time to read-out.

Assay: 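Screen of kinase gene silencing for colorectal cancer cell killing and drug cooperation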 (primary screen)
Cell system: SW620 colorectal cancer cells
Reagents: siRNA pool against human genes
Conditions: anchor drugs BYL719 at 1 µM, cetuximab at 5 µg/ml or trametinib at 10 nM, each beside a DMSO vehicle arm
Measured: 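Cell viability in each well relative to non-targeting controls, averaged over replicates and turned into a robust z-score; synergy with BYL719 (1 µM), cetuximab (5 µg/ml), trametinib (10 nM) versus DMSO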
Reading the numbers: viability robust z-score, no drug and viability vs control, no drug: higher = more viable cells; synergy score with BYL719 and synergy score with cetuximab and synergy score with trametinib: higher = stronger synthetic lethality with the drug
Hit rule: 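Essential when the viability robust z-score without drug is under -3; synergy scores are ignored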
Calls: active = essential (lethal alone); inactive = no change alone

target gene,"viability robust z-score, no drug","viability vs control, no drug",synergy score with BYL719,synergy score with cetuximab,synergy score with trametinib,Call
CAMK2D,0.27,0.957,-0.0443,0.0649,-0.0627,inactive
BTK,0.158,0.947,-0.0746,0.0189,0.00659,inactive
CDADC1,-0.0252,0.93,-0.135,-0.0702,-0.00108,inactive
PRKCQ,0.295,0.959,0.0189,0.0641,0.0713,inactive
GALK2,0.362,0.965,0.0494,-0.0345,-0.0928,inactive
CIB2,-2.16,0.733,-0.0302,0.011,0.0709,inactive
LMBR1,-0.162,0.917,-0.136,-0.0567,-0.102,inactive
PANK4,-0.687,0.869,-0.0259,-0.034,0.0326,inactive
CLK1,0.736,1,-0.0172,0,0.0313,inactive
PIM3,0.677,0.995,-0.00298,0.113,0.0703,inactive
GSK3A,0.736,1,0.00515,0.0174,-0.0443,inactive
LTK,-1.03,0.837,-0.168,-0.0721,-0.229,inactive
AURKA,-4.14,0.55,0.0283,0.00265,-0.0233,active
APC,-0.281,0.906,-0.0215,-0.0492,0.0729,inactive
NME6,-0.927,0.847,-0.0396,0.0208,0.0295,inactive
BUB1B,-1.91,0.756,-0.0291,-0.0013,0.0361,inactive
PRKAR1B,-0.496,0.886,-0.00791,-0.0146,0.00202,inactive
PAK1,-1.19,0.823,0.0285,-0.117,0.028,inactive
BRAF,-0.9,0.849,0.0574,-0.00748,-0.0137,inactive
PBK,0.647,0.992,-0.0911,0.00672,-0.0374,inactive
TP53,0.736,1,0.111,0.0169,0.136,inactive
GRK7,0.284,0.958,-0.0859,-0.0417,0.0604,inactive
CDK5R2,-0.347,0.9,-0.0156,-0.1,-0.168,inactive
CDK13,0.736,1,-0.046,0,-0.0863,inactive
ADCK1,-1.11,0.83,-0.0477,-0.17,-0.0419,inactive
CDK9,0.736,1,0.0755,0.11,0.0169,inactive
DLG3,0.736,1,-0.0337,0.0617,0.0768,inactive

Continued; the last 6 above are carried over.
target gene,"viability robust z-score, no drug","viability vs control, no drug",synergy score with BYL719,synergy score with cetuximab,synergy score with trametinib,Call
GRK7,0.284,0.958,-0.0859,-0.0417,0.0604,inactive
CDK5R2,-0.347,0.9,-0.0156,-0.1,-0.168,inactive
CDK13,0.736,1,-0.046,0,-0.0863,inactive
ADCK1,-1.11,0.83,-0.0477,-0.17,-0.0419,inactive
CDK9,0.736,1,0.0755,0.11,0.0169,inactive
DLG3,0.736,1,-0.0337,0.0617,0.0768,inactive
PI4K2A,0.736,1,-0.0343,0,0.0282,inactive
PRKCZ,0.736,1,-0.0919,0,-0.118,inactive
CDKN2B,-0.356,0.899,-0.1,-0.101,-0.0967,inactive
CERK,0.736,1,-0.0287,0,-0.163,inactive
EXOSC10,-0.791,0.859,0.0454,0.0369,-0.00183,inactive
LRRK1,0.736,1,-0.0706,0,-0.0564,inactive
IKBKE,0.736,1,0.0458,0.109,0.0535,inactive
CHD4,-0.633,0.874,-0.0319,-0.0319,-0.0689,inactive
YES1,0.307,0.96,-0.0821,-0.0396,-0.0638,inactive
SMC1A,0.736,1,0.0977,0,0.0939,inactive
ROS1,0.596,0.987,-0.0276,0.0333,0.0787,inactive
TCF12,0.736,1,-0.0639,0,-0.0528,inactive
PIK3CG,-0.0577,0.927,0.0257,0.00989,0.0572,inactive
SF3B1,-5.91,0.387,-0.032,-0.0924,-0.0715,active
EPHA8,-0.271,0.907,-0.114,-0.093,-0.115,inactive
TGFBR1,0.736,1,-0.00677,0.0939,0.0364,inactive
MAGI1,-0.222,0.912,-0.00506,-0.034,0.0973,inactive
RAF1,-1.16,0.825,0.0262,-0.0955,0.00128,inactive
PIK3C2G,0.118,0.943,0.169,0.0221,0.157,inactive
MED24,0.736,1,0.0193,0,0.0102,inactive
CKMT1B,0.0466,0.936,0.00576,-0.0636,0.0611,inactive
NME5,0.483,0.977,0.0222,0.0573,0.0964,inactive
AKT3,0.736,1,-0.0472,0.00185,0.00351,inactive
